Source: article PMC12487888
No constants are given. Whether binding was seen depends on the method and setting.

Chains of the proteins cited; added tags and fusions are not shown. Residues count along the entry.
UniProt Q9ZFV5, residues 100-229: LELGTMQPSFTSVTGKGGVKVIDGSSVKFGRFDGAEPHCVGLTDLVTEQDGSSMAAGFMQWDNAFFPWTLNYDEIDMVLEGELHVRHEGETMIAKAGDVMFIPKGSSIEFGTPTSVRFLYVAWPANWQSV
UniProt P19265, residues 1-20: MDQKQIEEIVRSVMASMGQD

Biological target: EutQ C-terminal domain (EutQ^100–229) (S. Typhimurium LT2) (UniProt Q9ZFV5)
Test: ITC; 20 μM protein in the cell, 200 to 400 μM peptide in the syringe; 19 injections, 25°C; 20 mM Na2HPO4, 20 mM NaCl, pH 6.5; both purified

Substance: EutC^1–20 encapsulation peptide (from UniProt P19265 1-20)
- binding: no binding (tested: 20 μM protein, 200 to 400 μM peptide)
